From publication doi:10.1101/2025.08.01.668243
Like-named read-outs stand apart in the source and are kept apart here. Results are given in words; binding and its absence hold for the method and conditions named. In cells and extracts the contact can be indirect. These calls come from enrichment with a bait or labelling near it, and not all partners need be listed.

The chains behind the UniProt entries cited, without tags or fusion partners.
UniProt P24385: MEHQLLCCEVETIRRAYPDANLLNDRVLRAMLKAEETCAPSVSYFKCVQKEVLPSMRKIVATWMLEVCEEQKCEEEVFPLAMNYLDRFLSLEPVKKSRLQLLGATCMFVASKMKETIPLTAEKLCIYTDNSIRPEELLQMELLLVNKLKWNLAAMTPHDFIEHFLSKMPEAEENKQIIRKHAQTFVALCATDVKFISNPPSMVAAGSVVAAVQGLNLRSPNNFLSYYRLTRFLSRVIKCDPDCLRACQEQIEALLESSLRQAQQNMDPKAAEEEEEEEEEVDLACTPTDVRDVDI
UniProt P38936: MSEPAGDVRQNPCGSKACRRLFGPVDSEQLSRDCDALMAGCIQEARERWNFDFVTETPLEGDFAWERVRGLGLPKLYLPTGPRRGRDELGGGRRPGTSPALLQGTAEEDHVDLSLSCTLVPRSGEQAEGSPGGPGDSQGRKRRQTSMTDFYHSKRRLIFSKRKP
UniProt P33176: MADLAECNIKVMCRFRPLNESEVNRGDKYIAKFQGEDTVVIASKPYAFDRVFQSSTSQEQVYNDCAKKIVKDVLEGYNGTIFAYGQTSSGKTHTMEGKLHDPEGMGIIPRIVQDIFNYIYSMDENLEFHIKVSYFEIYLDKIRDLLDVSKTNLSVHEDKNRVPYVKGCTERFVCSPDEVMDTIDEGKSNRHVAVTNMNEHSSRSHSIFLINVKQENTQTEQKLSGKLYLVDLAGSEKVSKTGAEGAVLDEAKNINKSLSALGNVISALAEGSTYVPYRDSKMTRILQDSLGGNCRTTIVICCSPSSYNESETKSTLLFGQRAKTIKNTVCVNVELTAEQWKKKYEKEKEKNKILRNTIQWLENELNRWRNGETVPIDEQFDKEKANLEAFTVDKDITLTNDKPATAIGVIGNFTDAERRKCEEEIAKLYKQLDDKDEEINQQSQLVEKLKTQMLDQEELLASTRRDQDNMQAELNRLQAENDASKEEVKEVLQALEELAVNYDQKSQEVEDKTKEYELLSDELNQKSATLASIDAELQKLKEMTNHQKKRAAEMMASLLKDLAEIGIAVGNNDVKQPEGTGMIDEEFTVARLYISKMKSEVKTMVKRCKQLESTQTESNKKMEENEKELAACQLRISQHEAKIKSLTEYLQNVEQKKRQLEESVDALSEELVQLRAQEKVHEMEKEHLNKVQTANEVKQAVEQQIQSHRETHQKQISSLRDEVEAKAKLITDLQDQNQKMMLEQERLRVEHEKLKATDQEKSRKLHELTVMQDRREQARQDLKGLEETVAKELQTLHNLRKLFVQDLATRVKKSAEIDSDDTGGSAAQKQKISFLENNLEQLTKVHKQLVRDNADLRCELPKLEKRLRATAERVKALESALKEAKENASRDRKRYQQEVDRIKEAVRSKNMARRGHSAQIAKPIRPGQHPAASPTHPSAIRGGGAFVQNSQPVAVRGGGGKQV
UniProt P12004: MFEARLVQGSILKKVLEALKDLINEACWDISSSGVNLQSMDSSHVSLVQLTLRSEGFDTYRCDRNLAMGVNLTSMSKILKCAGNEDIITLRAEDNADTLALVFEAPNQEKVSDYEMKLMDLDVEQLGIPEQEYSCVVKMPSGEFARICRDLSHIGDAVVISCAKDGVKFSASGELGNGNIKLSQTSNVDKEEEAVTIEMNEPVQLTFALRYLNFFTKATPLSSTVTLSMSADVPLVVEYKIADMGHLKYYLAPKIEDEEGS

How the values were obtained:
[1] = molecular target: Cyclin D1 (CCND1) (human (endogenous in IMR90)) (UniProt P24385); experiment: affinity purification with mass spectrometry; CCND1 IP from senescent IMR90 lysate (EBC100) with two antibodies (rabbit and mouse) on Dynabeads Protein G against IgG control IPs; three washes NETN, two washes TBS; on-bead trypsin/Lys-C digest, LC-MS/MS
[2] = molecular target: Cyclin D1 (CCND1) (human (endogenous in IMR90)) (UniProt P24385); experiment: as above; remark: listed apart in the source

CDKN1A (from UniProt P38936 1-164)
binding [1]: binds

KIF5B (from UniProt P33176 1-963)
binding [1]: binds

PCNA (from UniProt P12004 1-261)
binding [1]: binds

B1: KIF4A (protein, UniProt O95239 1-1232)
chain: MKEEVKGIPVRVALRCRPLVPKEISEGCQMCLSFVPGEPQVVVGTDKSFTYDFVFDPSTEQEEVFNTAVAPLIKGVFKGYNATVLAYGQTGSGKTYSMGGAYTAEQENEPTVGVIPRVIQLLFKEIDKKSDFEFTLKVSYLEIYNEEILDLLCPSREKAQINIREDPKEGIKIVGLTEKTVLVALDTVSCLEQGNNSRTVASTAMNSQSSRSHAIFTISLEQRKKSDKNSSFRSKLHLVDLAGSERQKKTKAEGDRLKEGININRGLLCLGNVISALGDDKKGGFVPYRDSKLTRLLQDSLGGNSHTLMIACVSPADSNLEETLNTLRYADRARKIKNKPIVNIDPQTAELNHLKQQVQQLQVLLLQAHGGTLPGSITVEPSENLQSLMEKNQSLVEENEKLSRGLSEAAGQTAQMLERIILTEQANEKMNAKLEELRQHAACKLDLQKLVETLEDQELKENVEIICNLQQLITQLSDETVACMAAAIDTAVEQEAQVETSPETSRSSDAFTTQHALRQAQMSKELVELNKALALKEALARKMTQNDSQLQPIQYQYQDNIKELELEVINLQKEKEELVLELQTAKKDANQAKLSERRRKRLQELEGQIADLKKKLNEQSKLLKLKESTERTVSKLNQEIRMMKNQRVQLMRQMKEDAEKFRQWKQKKDKEVIQLKERDRKRQYELLKLERNFQKQSNVLRRKTEEAAAANKRLKDALQKQREVADKRKETQSRGMEGTAARVKNWLGNEIEVMVSTEEAKRHLNDLLEDRKILAQDVAQLKEKKESGENPPPKLRRRTFSLTEVRGQVSESEDSITKQIESLETEMEFRSAQIADLQQKLLDAESEDRPKQRWENIATILEAKCALKYLIGELVSSKIQVSKLESSLKQSKTSCADMQKMLFEERNHFAEIETELQAELVRMEQQHQEKVLYLLSQLQQSQMAEKQLEESVSEKEQQLLSTLKCQDEELEKMREVCEQNQQLLRENEIIKQKLTLLQVASRQKHLPKDTLLSPDSSFEYVPPKPKPSRVKEKFLEQSMDIEDLKYCSEHSVNEHEDGDGDDDEGDDEEWKPTKLVKVSRKNIQGCSCKGWCGNKQCGCRKQKSDCGVDCCCDPTKCRNRQQGKDSLGTVERTQDSEGSFKLEDPTEVTPGLSFFNPVCATPNSKILKEMCDVEQVLSKKTPPAPSPFDLPELKHVATEYQENKAPGKKKKRALASNTSFFSGCSPIEEEAH
binding [2]: binds
